The list shows a part of the results. Single values are uncertain, as repeats are few or missing.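 Cells were imaged in 1,536-well plates, and nuclei stained with an antibody against cleaved PARP were counted against all DNA-stained nuclei to give the apoptosis fraction. Screening doses were chosen to leave most cells alive, and resting and induced cleaved-PARP levels differ strongly between cell lines.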
Each molecule was assayed on SkMel2 (assay: cleaved PARP positive nuclei fraction relative to DMSO control; melanoma cells; higher = more apoptosis). Settings: library dose: low library concentration; 72 h.

Row | SMILES | cleaved PARP positive nuclei fraction [%]
1 | CN(C)S(=O)(=O)c1ccc2c(c1)/C(=C/c1cc3c([nH]1)CCCC3)C(=O)N2 + CN(NC(=O)CC(=O)NN(C)C(=S)c1ccccc1)C(=S)c1ccccc1 [STA4783] (first compound 0.4 µM, partner dose 0.006 µM) | 34.2
2 | O=C(O)c1ccc(-c2c[nH]c3ncc(-c4ccccc4)cc23)cc1C1CCCC1 + NCC(=O)Nc1ccc(-n2nc(C(F)(F)F)cc2-c2ccc3c(ccc4ccccc43)c2)cc1 [OSU03012] (first compound 0.16 µM, partner dose 1 µM) | 135
3 | CN(C)S(=O)(=O)c1ccc2c(c1)/C(=C/c1cc3c([nH]1)CCCC3)C(=O)N2 + COc1cc2c(Oc3ccc4[nH]c(C)cc4c3F)ncnc2cc1OCCCN1CCCC1 [cediranib] (first compound 0.4 µM, partner dose 0.4 µM) | 81.8
4 | CN(C)S(=O)(=O)c1ccc2c(c1)/C(=C/c1cc3c([nH]1)CCCC3)C(=O)N2 + O=C(O)c1ccc(-c2c[nH]c3ncc(-c4ccccc4)cc23)cc1C1CCCC1 [GSK650394] (first compound 0.4 µM, partner dose 0.16 µM) | 58.6
